Results are given in words; binding and its absence hold for the method and conditions named. Some entries that bind do so weakly or less than the wild type.
B1: PepSpot array peptide 18 (peptide)
peptide: PWTMAPPPGSTPSRT
B2: PepSpot array peptide 11 of the MSI1 C-terminus (…) (peptide)
peptide: YQFPEFRVERTPLPS
B3: PepSpot array peptide 26 of the MSI1 C-terminus (…) (peptide)
peptide: HSLGGPLIATAFTNG
B4: PepSpot array peptide 10 (peptide)
peptide: GLAPGYTYQFPEFRV

By UniProt entry, the sequences of proteins in these tests, tags left out. Where a name states a change or a piece, a line headed by the entry shows the natural chain unless it says otherwise. Chains listed by the source or under a name are the forms on record and can include a tag or linker.
recombinant His-tagged AGO2 protein (human Argonaute 2, baculovirus-expressed) (Q9UKV8, form named): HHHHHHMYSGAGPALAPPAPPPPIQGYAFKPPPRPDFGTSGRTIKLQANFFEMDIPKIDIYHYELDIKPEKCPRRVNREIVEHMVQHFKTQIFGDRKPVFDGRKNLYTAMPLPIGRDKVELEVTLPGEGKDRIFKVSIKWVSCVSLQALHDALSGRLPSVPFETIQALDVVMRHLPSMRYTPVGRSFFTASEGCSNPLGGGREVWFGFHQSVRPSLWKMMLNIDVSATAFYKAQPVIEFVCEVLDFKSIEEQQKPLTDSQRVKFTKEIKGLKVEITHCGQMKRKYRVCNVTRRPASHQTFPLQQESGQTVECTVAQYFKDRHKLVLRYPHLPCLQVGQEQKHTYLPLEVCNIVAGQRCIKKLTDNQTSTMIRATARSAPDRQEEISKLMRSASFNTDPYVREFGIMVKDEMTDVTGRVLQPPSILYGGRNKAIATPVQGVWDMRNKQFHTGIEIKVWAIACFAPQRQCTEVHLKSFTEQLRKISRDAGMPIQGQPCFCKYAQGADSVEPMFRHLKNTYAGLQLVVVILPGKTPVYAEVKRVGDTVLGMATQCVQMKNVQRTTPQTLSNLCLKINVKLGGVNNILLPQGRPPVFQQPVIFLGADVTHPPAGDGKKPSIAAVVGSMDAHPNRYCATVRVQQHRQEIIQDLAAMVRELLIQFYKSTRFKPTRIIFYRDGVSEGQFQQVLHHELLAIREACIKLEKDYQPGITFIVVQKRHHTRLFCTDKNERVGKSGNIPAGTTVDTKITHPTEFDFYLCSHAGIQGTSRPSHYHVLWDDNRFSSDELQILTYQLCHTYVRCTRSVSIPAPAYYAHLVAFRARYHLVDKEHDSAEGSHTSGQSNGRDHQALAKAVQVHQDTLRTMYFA

The binders below were run against recombinant His-tagged AGO2 protein (human Argonaute 2, baculovirus-expressed) (human) (UniProt Q9UKV8) (assay: PepSpot peptide array of 27 MSI1 C-terminal peptides incubated with recombinant His-tagged AGO2 (2 µg), detected with anti-His-HRP).

binding, binds:
B1
B2
B3
B4

Each binder was assayed against recombinant His-tagged AGO2 protein (human Argonaute 2, baculovirus-expressed) (human) (UniProt Q9UKV8) (assay: PepSpot peptide array on nitrocellulose probed with His-AGO2, anti-His HRP).

binding, binds:
B2
B3
